{"sequences": {"note": "Protein sequences, listed by entry. Tags and fused reporters are not part of them. Residues count along the entry.", "UniProt P23385, residues 19-1199": "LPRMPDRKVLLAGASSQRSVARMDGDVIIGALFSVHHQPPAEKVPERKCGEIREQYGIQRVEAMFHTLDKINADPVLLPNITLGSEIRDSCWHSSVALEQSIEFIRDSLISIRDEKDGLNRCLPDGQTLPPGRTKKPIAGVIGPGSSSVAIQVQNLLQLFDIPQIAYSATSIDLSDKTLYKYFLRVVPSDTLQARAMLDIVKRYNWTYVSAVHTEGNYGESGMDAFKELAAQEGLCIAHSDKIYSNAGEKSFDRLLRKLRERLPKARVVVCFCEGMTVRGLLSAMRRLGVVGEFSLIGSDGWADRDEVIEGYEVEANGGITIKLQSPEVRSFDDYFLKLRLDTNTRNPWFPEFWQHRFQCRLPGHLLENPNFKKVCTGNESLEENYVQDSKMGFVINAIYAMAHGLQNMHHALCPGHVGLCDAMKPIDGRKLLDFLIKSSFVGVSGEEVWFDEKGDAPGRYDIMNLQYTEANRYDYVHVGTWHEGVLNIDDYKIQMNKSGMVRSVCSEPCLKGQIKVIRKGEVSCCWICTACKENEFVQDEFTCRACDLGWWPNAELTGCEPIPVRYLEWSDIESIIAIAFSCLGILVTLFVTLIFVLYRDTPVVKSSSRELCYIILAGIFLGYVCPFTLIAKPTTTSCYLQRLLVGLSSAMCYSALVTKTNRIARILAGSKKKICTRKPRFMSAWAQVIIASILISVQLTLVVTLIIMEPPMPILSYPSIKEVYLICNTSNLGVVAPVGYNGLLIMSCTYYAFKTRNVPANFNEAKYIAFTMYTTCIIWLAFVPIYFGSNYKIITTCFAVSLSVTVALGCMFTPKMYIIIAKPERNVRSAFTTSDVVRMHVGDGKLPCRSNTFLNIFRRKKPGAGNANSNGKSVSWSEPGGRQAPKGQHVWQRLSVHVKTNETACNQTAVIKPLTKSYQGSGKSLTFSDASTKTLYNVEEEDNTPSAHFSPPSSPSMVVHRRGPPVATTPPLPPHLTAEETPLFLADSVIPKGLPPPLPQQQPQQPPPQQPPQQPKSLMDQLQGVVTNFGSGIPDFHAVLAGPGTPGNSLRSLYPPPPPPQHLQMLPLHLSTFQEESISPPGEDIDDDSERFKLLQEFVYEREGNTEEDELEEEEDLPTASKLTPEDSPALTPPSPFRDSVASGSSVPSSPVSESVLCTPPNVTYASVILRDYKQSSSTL", "UniProt Q62083": "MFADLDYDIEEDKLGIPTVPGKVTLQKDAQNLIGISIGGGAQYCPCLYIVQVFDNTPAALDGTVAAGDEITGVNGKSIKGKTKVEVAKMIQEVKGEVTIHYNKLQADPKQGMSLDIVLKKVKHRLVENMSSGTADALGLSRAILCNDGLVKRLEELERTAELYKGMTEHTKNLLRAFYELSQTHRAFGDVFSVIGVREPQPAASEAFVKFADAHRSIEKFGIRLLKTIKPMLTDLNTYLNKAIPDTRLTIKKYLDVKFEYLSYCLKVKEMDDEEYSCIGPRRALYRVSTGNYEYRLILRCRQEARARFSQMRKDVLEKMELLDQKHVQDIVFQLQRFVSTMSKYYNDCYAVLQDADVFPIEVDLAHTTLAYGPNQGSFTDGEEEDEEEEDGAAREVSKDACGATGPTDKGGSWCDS"}, "source": "paper PMC10276164", "molecular_target": "FLAG-mGluR1 (metabotropic glutamate receptor 1) (UniProt P23385)", "experiment": "co-IP; anti-FLAG antibody on protein A/G beads, lysate of primary neurons transfected with FLAG-mGluR1 (72 h); TAP lysis buffer (20 mM Tris pH 8.0, 150 mM NaCl, 0.5% NP-40, 1 mM MgCl2, 1 mM Na3VO4); cells untreated or treated with 100 uM R,S-DHPG for 5 min; blots for FLAG and PICK1", "note": "These are yes or no findings as the source states them, for the method shown. Binding seen in cells or lysates may run through a third protein. Some entries that bind do so weakly or less than the wild type."}
{"substance": "Protein interacting with C kinase 1 (PICK1) (from UniProt Q62083 1-416)", "values": [{"measurement": "binding", "value": "binds"}]}
